The results in this text go back to publication PMC5998047.

Amino acid sequences for entries named in this document (tags omitted).
UniProt O00571: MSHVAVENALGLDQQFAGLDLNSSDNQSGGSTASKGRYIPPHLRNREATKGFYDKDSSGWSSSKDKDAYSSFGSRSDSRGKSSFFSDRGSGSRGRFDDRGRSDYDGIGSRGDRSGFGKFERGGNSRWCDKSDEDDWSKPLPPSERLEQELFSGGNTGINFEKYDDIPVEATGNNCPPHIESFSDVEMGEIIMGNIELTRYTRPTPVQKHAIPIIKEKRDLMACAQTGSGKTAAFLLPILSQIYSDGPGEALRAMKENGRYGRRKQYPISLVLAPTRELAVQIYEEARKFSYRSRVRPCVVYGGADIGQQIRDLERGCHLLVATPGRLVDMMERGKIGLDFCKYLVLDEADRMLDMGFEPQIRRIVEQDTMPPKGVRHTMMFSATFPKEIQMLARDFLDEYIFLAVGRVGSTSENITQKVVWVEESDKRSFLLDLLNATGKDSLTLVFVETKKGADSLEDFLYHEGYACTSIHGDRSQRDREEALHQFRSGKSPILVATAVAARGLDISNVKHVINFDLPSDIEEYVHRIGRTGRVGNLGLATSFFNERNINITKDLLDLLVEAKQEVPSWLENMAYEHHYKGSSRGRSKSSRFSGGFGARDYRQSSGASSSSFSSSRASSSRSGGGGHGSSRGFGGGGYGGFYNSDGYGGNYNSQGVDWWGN
UniProt Q9HBA0: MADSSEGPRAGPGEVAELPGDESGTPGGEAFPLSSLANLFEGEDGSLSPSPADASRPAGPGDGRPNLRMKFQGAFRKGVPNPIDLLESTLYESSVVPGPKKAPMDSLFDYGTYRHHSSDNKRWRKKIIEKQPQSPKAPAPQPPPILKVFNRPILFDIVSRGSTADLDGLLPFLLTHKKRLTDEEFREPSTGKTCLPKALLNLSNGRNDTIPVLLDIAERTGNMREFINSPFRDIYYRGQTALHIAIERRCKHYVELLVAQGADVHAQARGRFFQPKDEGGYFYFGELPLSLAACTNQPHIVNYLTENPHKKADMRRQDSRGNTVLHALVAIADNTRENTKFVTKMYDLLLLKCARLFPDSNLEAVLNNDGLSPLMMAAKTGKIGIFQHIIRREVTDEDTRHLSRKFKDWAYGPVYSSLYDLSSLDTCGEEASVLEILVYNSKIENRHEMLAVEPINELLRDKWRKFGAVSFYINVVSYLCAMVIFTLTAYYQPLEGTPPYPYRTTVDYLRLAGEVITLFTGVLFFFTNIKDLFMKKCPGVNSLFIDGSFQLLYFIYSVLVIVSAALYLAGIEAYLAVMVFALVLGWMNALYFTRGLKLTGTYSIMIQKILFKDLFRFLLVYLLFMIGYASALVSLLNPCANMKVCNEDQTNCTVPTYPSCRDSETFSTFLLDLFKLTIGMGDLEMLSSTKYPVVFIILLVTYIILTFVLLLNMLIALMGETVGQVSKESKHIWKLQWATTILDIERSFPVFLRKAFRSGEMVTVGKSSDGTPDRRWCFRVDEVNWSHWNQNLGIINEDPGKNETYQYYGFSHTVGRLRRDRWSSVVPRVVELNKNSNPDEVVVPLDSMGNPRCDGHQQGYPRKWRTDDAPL

Results are given in words; binding and its absence hold for the method and conditions named. In cells and extracts the contact can be indirect. Some entries that bind do so weakly or less than the wild type.

The target in assay [1] is DDX3X-Myc(tag) (UniProt O00571). In words: co-IP; reversed co-IP in HEK293 cells: anti-Myc antibody to immunoprecipitate DDX3X, anti-V5 antibody to detect TRPV4.
The target of assay [2] is TRPV4-CFP (human) (UniProt Q9HBA0). In words: FRET or BRET; acceptor photobleaching FRET in HeLa cells expressing TRPV4-CFP and DDX3X-YFP (or free soluble YFP); CFP increase after YFP bleaching; control or 10 nM GSK1016790A.
Assay [3] concerns the target TRPV4-V5(tag) (human) (UniProt Q9HBA0). Description: co-IP; HEK293 cells overexpressing TRPV4-V5 and DDX3X-Myc; lysate (0.5% NP40, 150 mM NaCl) with anti-V5 antibody overnight at 4 C, protein G beads; DDX3X detected by blot; control and GSK1016790A-treated cells (band reduced with GSK1016790A).
Assay [4] has as its target endogenous TRPV4 (Huh7 cells) (human (endogenous in Huh7)) (UniProt Q9HBA0). Description: co-IP; endogenous proteins, lysate of about 2.3 x 10^8 Huh7 cells; anti-TRPV4 antibody (against the final 20 aa of human TRPV4) overnight, protein G beads; blot with anti-DDX3X; control and GSK1016790A-treated cells (interaction reduced with GSK1016790A).

Consider “TRPV4-V5(tag) (from UniProt Q9HBA0 1-871) (receptor)”, for which the binding entry in assay [1] was “binds”.

Consider “DDX3X-YFP (from UniProt O00571 1-662) (enzyme)”, for which the binding entry in assay [2] is recorded as “binds”.

With “DDX3X-Myc(tag) (from UniProt O00571 1-662) (enzyme)”, the binding result in assay [3] was “binds”.

Regarding “endogenous DDX3X (Huh7 cells) (from UniProt O00571 1-662) (enzyme)”, the binding entry in assay [4] is recorded as “binds”.
